Values of other authors in patent publication US20220362210A1 (Luckwel Pharmaceuticals Inc., priority 2021, published 2022).
Where a name gives a salt, the structure may show the parent alone.

Columns and labels:
[1] = wide range of pharmaceutical formulations
[2] = geriatric population compared with young adults

In the case of `CC(C)c1c(C(=O)Nc2ccccc2)c(-c2ccccc2)c(-c2ccc(F)cc2)n1CC[C@@H](O)C[C@@H](O)CC(=O)O` (relative stereo) [Atorvastatin, [R—(R*,R*)]-2-(4-fluorophenyl)-β,δ-dihydroxy-5-(1-methylethyl)-3-phenyl-4-[(phenylamino)carbonyl]-1H-pyrrole-1-heptanoic acid, calcium salt (2:1)], the “time to reach maximum plasma concentrations” value (dosed between 10 and 80 mg once daily) is listed as 1 to 2 h, the “AUC, geriatric population versus young adults” value [2] is listed as 30 % higher and the “Cmax, geriatric population versus young adults” value [2] is listed as 40 % higher. The “Cmax in patients with hepatic insufficiency” value (hepatic insufficiency (e.g., chronic alcoholic liver disease)) was 4 times higher, the “AUC, women versus men” value (women compared with men) was 10 % lower and the “Cmax, women versus men” value (women compared with men) was 20 % higher. The “stability in pharmaceutical formulations” value [1] was “stable”.
